These are yes or no findings as the source states them, for the method shown. Binding seen in cells or lysates may run through a third protein. Binding calls can cover weak binding; strength is not graded here.
Target: GFP-FERM (N-terminal FERM domain of FAK) (UniProt P34152)
Assay: co-IP; GFP-IP from HeLa cells transfected with GFP fusion constructs of FAK, treated with FAK-I and MG-132 for 6 h before immunoprecipitation; immunoblot for endogenous CDK4 and CDK6

Chains of the proteins cited; added tags and fusions are not shown. Lines headed by an entry give the natural chain unless they say otherwise; changes in a name come on top.
UniProt P34152: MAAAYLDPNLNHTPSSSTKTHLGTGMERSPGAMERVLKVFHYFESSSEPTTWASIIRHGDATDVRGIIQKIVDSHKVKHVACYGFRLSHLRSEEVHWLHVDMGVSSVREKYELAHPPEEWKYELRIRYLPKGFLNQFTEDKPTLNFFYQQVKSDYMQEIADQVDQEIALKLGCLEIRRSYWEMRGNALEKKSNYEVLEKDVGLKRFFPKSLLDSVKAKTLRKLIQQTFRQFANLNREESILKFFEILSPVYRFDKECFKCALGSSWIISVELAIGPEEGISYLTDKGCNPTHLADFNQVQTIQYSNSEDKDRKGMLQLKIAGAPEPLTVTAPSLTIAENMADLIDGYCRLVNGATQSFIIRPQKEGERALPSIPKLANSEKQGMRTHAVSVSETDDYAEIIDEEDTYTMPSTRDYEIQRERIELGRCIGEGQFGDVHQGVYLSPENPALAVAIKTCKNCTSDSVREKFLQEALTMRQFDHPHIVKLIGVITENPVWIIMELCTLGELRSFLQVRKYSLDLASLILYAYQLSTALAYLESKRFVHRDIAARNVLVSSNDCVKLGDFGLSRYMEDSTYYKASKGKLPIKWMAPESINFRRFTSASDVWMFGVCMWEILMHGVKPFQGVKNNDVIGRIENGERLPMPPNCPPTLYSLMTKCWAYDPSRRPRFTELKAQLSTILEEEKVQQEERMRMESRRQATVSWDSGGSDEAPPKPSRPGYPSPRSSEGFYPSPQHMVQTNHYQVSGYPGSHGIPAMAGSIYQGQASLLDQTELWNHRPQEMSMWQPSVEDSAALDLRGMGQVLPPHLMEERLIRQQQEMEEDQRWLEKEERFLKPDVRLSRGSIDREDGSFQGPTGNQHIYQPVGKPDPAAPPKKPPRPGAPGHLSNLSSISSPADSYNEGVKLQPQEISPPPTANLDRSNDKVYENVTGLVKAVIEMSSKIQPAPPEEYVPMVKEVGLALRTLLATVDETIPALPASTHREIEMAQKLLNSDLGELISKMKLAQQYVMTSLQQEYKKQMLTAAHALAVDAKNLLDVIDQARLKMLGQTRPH
UniProt Q00534: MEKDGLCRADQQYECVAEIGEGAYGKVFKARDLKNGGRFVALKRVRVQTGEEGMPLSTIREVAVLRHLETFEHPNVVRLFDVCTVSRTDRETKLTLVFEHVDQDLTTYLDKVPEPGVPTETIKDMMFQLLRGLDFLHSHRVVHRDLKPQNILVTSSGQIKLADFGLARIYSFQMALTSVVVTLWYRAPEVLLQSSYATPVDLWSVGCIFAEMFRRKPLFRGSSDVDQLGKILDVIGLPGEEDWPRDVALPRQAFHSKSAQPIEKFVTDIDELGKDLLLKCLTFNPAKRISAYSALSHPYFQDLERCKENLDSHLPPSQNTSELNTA

cyclin-dependent kinase 6 (CDK6) (from UniProt Q00534 1-326)
binding: binds
